Measured values: PubChem BioAssay AID1487 (National Center for Advancing Translational Sciences (NCATS), 2009)
Where “and” joins values, the source holds several entries; their conditions need not be identical. Identical values can stand only once. The list shows a part of the results. Shown are side measurements of this screen, not its main read-out; they come without a call. The list favours compounds with an active or inconclusive main result. The note in brackets gives the kind of curve behind each potency; many fits are weak.

Assay: qHTS Assay for Modulators of Lamin A Splicing
Settings: HeLa LMNA splicing GFP/RFP minigene ratio, 48 h
Procedure, shortened: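 S3 HeLa cells stably expressing lamin A-EGFP splicing minigene plus DsRed2, 600 cells/well, 48 h compound exposure at 37C. Laser-scanning cytometry; analysed as GFP (500-530 nm)/RFP (575-640 nm) total intensity ratio; 0.5% DMSO vehicle.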

[1] = measured here: GFP splicing reporter channel
[2] = measured here: RFP viability control channel

| Structure (SMILES) | AC50 [1] | AC50 [2] |
| --- | --- | --- |
| O=C(/C=C/c1ccc(S(=O)(=O)N2CCOCC2)cc1)NCc1ccc(Cl)cc1 | 15.8 µM [rising, single point] | 11.2 µM [rising, partial curve] |
| COc1ccc(F)cc1S(=O)(=O)NCC(c1ccco1)S(=O)(=O)c1cccs1 (configuration not stated) | 0.0708 µM [falling, partial curve, poor fit] |  |
| CCOc1ccc(N2C(=O)CC(N(C)Cc3ccccc3)C2=O)cc1 (configuration not stated) | 0.562 µM [falling, full curve, poor fit] | 0.0562 µM [falling, full curve, poor fit] |
| COc1ccc(-c2ccc(C3C(C#N)=C(N)Oc4n[nH]c(C)c43)o2)cc1 (configuration not stated) | 22.4 µM [falling, single point] | 31.6 µM [falling, single point] |
| CCCCCCCCCC[n+]1cccc(C(=O)N(CC)CC)c1 | 10 µM [rising, partial curve] | 15.8 µM [rising, partial curve] |
| Cc1ccc(C(=O)Nc2ccc(N3CCCC3)cc2)cc1 | 10 µM [falling, partial curve] | 7.08 µM [falling, full curve, poor fit] |
| COc1ccc(NC(=S)N(CCCN2CCOCC2)Cc2cn(C)c3ccccc23)cc1OC |  | 17.8 µM [rising, partial curve, poor fit] |
| CCCN(CC(=O)Nc1cc(Cl)cc(Cl)c1)CC(=O)Nc1ccc(F)c(F)c1F | 12.6 µM [falling, partial curve] | 11.2 µM [falling, single point] |
| CNCCCC1c2ccccc2C=Cc2ccccc21 | 10 µM [rising, partial curve, poor fit] and 35.5 µM [falling, single point] and 35.5 µM [rising, single point] | 7.08 nM [rising, full curve, poor fit] and 5.01 µM [falling, full curve, poor fit] |
| COC(=O)c1ccccc1NC(=O)c1ccccc1OC | 14.1 µM [rising, partial curve, poor fit] |  |
| COc1cccc(-c2cncnc2NCc2ccc(OC)cc2OC)c1 | 14.1 µM [falling, partial curve] |  |
| Cn1c(=O)c(C(=O)Nc2ncccn2)c(O)c2ccccc21 |  | 1.41 µM [rising, partial curve] |
| COc1cc(C2C(=O)N(C3CCCCCC3)CC(=O)N2CCC2=CCCCC2)ccc1OC(C)C (configuration not stated) |  | 20 µM [rising, single point] |
| CC1(C)C2CC=C(/C=N/NC(=S)Nc3cccnc3)C1C2 (configuration not stated) |  | 14.1 µM [falling, single point] |
| Cc1ccsc1/C=N\NC(=O)c1ccc2c(c1)OCO2 | 12.6 µM [rising, partial curve] |  |
| COc1ccccc1NC1SC(=O)N(c2ccccc2)C1=O (configuration not stated) |  | 5.62 µM [rising, single point] |
| CCOC(=O)Cc1cc(=O)n(-c2nc3ccccc3s2)[nH]1 | 14.1 µM [falling, single point] | 10 µM [falling, partial curve] |
| CC1CCN(C2=C(NS(=O)(=O)c3ccc(Cl)cc3)C(=O)c3ccccc3C2=O)CC1 |  | 12.6 µM [rising, partial curve] |
| Cc1c(/C=N\NC(=O)c2ccc(F)cc2)cnn1C |  | 0.562 µM [falling, partial curve] |
| CC(=O)C1=C(c2ccc(Cl)c(Cl)c2)N(C(C)=O)n2c(nnc2C2CCCCC2)S1 |  | 35.5 µM [rising, single point] |
| CCc1c(C)nc(SCC(=O)N2C(C)CCCC2C)[nH]c1=O (configuration not stated) | 35.5 µM [falling, single point] |  |
| COc1cccc(C(c2sc3ncnn3c2O)N2CCc3ccccc3C2)c1 (configuration not stated) |  | 35.5 µM [rising, single point] |
| Cc1cccc(OCc2n(CC(=O)OC3CC(C)CCC3C(C)C)c3ccccc3[n+]2C)c1 (configuration not stated) | 14.1 µM [falling, partial curve, poor fit] | 11.2 µM [falling, partial curve] |
| CCOc1ccc(OCC)c(NC(=O)c2cc(CN3CCOCC3)on2)c1 |  | 3.16 µM [falling, partial curve] |
| Cc1ccccc1/C=N\NC(=O)c1ccccc1-n1cccc1 | 0.112 µM [rising, full curve, poor fit] |  |
| O=C(CN(c1ccc(Cl)c(C(F)(F)F)c1)S(=O)(=O)c1ccccc1)N/N=C/c1cccc2c1OCCO2 | 3.98 µM [falling, single point] | 5.62 µM [falling, partial curve, poor fit] |
| CCOc1cccc(CN2CCN(c3cccc(C(F)(F)F)c3)CC2)c1O |  | 31.6 µM [rising, single point] |
